Measurements taken from publication PMC10397291, “Molecular pathway and structural mechanism of human oncochannel TRPV6 inhibition by the phytocannabinoid tetrahydrocannabivarin” (Nature Communications, 2023).
Several values for one entry are separate records, joined by “and”; a condition that tells them apart may be missing. Identical values can stand only once. The source gives many values for each of these; only a part stands here.

Molecular target: T1, T567A mutant hTRPV6 (Homo sapiens, UniProt Q9H1D0, T607A)
T1 construct: Full-length wild-type or mutant human TRPV6 was expressed in HEK 293S cells as described above; expressed in transfected cells; host or cells: HEK 293S GnTI- (baculovirus/BacMam transduction)
T1 sequence (Q9H1D0 41-765 T607A limits assumed): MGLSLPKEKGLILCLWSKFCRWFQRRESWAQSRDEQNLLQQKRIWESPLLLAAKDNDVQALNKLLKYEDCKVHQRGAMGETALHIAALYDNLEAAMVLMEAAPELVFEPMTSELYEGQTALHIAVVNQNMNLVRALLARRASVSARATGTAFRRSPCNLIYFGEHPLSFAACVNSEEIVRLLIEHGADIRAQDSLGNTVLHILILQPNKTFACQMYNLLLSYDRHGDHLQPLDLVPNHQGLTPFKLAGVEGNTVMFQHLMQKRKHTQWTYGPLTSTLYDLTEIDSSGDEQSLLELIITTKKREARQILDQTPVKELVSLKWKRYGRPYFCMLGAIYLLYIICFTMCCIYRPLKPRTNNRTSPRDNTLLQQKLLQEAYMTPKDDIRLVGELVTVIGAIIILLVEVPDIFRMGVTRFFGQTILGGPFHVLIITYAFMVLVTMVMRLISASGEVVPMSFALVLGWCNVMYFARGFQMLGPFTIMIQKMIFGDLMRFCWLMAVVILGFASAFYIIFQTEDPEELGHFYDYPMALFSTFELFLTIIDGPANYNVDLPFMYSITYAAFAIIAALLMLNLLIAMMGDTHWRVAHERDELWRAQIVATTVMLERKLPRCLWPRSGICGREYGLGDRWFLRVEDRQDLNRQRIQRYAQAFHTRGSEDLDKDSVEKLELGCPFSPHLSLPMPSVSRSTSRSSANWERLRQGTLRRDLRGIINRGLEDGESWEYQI
Assay: Fura-2 AM Ca2+ uptake, T567A mutant hTRPV6
Format: cell-based
Details: replicates

**Q.** `CCCc1cc(O)c2c(c1)OC(C)(C)[C@@H]1CCC(C)=C[C@@H]21` [THCV, tetrahydrocannabivarin] was tested. Which “change in F340/F380 evoked by 10 mM Ca2+” value (1 μM THCV) did it give?
**A.** 1.055 and 1.072 and 1.066

**Q.** And the “change in F340/F380 evoked by 10 mM Ca2+” value (3 μM THCV)?
**A.** 1.140 and 1.055 and 0.900 and 0.960

**Q.** And the “change in F340/F380 evoked by 10 mM Ca2+” value (10 μM THCV)?
**A.** 0.758 and 0.727 and 0.672 and 0.689

**Q.** What about the “change in F340/F380 evoked by 10 mM Ca2+” value (30 μM THCV) of the same molecule?
**A.** 0.515 and 0.510 and 0.506 and 0.585

**Q.** And the “change in F340/F380 evoked by 10 mM Ca2+” value (100 μM THCV)?
**A.** 0.601 and 0.585 and 0.580 and 0.569
